Test [1] addresses T1, mycobacterial lipoamide dehydrogenase C (LpdC), BiFC fusion (Mycobacterium tuberculosis) (UniProt P9WHH9).
T1 sequence: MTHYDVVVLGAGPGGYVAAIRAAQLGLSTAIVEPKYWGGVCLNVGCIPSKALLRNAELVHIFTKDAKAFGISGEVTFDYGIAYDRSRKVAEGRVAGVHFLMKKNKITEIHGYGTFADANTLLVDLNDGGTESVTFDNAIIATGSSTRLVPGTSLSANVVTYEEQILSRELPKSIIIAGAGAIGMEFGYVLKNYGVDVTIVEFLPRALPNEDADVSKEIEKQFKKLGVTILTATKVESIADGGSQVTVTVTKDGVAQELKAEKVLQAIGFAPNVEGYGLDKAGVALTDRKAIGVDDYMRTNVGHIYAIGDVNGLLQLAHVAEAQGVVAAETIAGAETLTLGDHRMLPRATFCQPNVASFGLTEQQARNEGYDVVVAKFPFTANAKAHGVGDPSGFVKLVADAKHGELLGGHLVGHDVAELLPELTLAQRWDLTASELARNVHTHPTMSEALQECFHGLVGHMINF
Description: split reporter.

Test [2] concerns the target T2, mycobacterial lipoamide dehydrogenase C (LpdC), construct of the co-IP (Mycobacterium tuberculosis) (UniProt P9WHH9).
T2 sequence: T1 sequence
Description: co-IP.

No constants are given. Whether binding was seen depends on the method and setting. In cells and extracts the contact can be indirect. Some entries that bind do so weakly or less than the wild type. Tags and fused reporters may be left off the sequences shown.

B1: bCoronin-2A, BiFC fusion (protein, UniProt Q32LP9 1-525)
chain: MSWHPQYRSSKFRHVFGKPASKENCYDSVPITHSVQDNHFCAVNPHFIAVVTECTGGGAFLVIPLHQTGKLDPHYPKVCGHRGNVLDVKWNPFNDFEIASCSEDATIKIWDIPKQLLTKNLTAFRKELVGHARKVGLVEWHPTAANILFSSGYDYKVMVWNLDSKESVIMSPVKTINCHQDVILSMSFNTNGSLLATACKDRKIRVLDPRAGTVLQEANYKGHRANKVLFLGNLKKLLSTGTSRWNNRQMALWDQDDLSVPVTEVDLDGSSGVLFPFYDADTNMLYVVGKGDRNIHYYEISANKPHLNYLMEYHSYNPQKGIGVMPKRGLDVSSCEIFRFYKLITTKSLIEPVSMIVPRRSESYQEDIYPPTASAQPSLTAQEWLSGMNKEPVLMSLRPGAEPLSPQPLPSERTLSMPTAPTSPHLFNQTESLVAEDGRRPFSLLEEKAPRWAAEHRQEEKKTWLSDGFDIFECPPPKTENELLQMFYRQQDEIRRLRELVTQREVQAKQLELEIRNLRMNSPRL
For B1, in test [1], the binding entry was “binds”.

B2: bCoronin-2A (co-IP construct) (protein, UniProt Q32LP9 1-525)
chain: B1 chain
Consider B2, for which the binding result in test [2] is listed as “binds”.

The record behind these values is article PMC11806767.
